Measurements: paper doi:10.1101/2024.10.14.618219
These are yes or no findings as the source states them, for the method shown. Some results given as binding are weak or reduced against the parent protein; the word gives no strength.

By UniProt entry, the sequences of proteins in these tests, tags left out.
UniProt Q9Y496, whole entry: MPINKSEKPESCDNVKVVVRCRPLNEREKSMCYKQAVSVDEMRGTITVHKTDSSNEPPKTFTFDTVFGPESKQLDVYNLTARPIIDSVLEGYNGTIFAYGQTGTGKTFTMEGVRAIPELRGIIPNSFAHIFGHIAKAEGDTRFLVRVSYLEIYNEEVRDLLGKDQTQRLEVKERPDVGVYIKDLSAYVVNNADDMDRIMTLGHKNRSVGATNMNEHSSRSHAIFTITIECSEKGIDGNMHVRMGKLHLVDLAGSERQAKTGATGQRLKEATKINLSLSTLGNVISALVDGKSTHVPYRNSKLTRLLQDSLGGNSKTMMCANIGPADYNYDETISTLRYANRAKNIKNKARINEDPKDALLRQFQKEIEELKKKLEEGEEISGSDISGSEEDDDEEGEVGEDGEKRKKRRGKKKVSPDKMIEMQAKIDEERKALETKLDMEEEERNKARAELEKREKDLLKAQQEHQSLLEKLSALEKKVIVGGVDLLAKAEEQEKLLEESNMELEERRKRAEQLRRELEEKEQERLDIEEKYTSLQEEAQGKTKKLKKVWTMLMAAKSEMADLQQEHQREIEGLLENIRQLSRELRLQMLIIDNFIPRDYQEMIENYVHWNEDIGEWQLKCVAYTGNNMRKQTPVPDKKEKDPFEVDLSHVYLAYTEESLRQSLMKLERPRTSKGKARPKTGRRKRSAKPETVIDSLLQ

Columns and labels:
Kif3B (human) [1] = molecular target: T1, Kif3B (human) (UniProt O15066); assay: mass photometry
T1 sequence: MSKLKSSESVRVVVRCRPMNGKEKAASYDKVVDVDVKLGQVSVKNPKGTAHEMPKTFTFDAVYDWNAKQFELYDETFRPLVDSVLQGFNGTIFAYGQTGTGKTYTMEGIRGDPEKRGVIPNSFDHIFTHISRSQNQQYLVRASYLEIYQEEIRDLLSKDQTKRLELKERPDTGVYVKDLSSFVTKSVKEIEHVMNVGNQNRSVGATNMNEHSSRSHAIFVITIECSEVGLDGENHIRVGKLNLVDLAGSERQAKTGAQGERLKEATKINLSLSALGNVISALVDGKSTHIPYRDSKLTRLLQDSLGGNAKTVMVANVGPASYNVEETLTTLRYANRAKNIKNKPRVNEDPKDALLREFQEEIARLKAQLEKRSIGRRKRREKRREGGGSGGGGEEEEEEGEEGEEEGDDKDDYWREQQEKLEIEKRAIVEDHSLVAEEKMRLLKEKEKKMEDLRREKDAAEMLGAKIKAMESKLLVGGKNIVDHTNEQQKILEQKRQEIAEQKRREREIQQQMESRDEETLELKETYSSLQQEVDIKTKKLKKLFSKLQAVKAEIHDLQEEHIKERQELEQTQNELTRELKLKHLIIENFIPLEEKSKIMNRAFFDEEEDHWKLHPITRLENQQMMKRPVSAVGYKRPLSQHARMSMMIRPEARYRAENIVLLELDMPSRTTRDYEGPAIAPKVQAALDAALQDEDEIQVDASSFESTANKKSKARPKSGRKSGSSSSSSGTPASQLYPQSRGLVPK

Kif3B (human) [2] = molecular target: T1, Kif3B (human); assay: SEC

Kif3A (from UniProt Q9Y496 1-699)
binding (Kif3B (human) [1]): binds | binding (Kif3B (human) [2]): binds
